# Results: PubChem BioAssay AID493014 (National Center for Advancing Translational Sciences (NCATS), 2011)
# The other results are listed elsewhere or left out. Shown are side measurements of this screen, not its main read-out; they come without a call. The list favours compounds with an active or inconclusive main result. The note in brackets gives the kind of curve behind each potency; many fits are weak.
# Experiment: qHTS Assay to Find Inhibitors of Chronic Active B-Cell Receptor Signaling
# Conditions: ABC-DLBCL IkBa-CBG/CBR reporter, luminescence ratio (green luciferase fused to IkBa over red control in TMD8 lymphoma cells), 4 h
# Method in brief: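 Doxycycline induced both beetle luciferases in TMD8 lymphoma cells; IKK-driven degradation limits the IkappaBalpha-fused green signal, while red luminescence normalises for cell number and nonspecific effects. Compounds tested up to 46 uM, 4 hrs.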
# [1] = measured here: CBR red luminescence, cell number
# [2] = measured here: IkBa-CBG green luminescence
Compound,AC50 [1],AC50 [2]
C[C@@H](C(=O)N1CCN(C(=O)OC(C)(C)C)CC1)n1cc(CCCN=C(NC(=O)OC(C)(C)C)NC(=O)OC(C)(C)C)nn1,"35.5 µM [rising, single point]",
Cc1cc2c(c(=O)n1CCN(C)C)C(c1ccncc1)C(C#N)=C(N)O2 (configuration not stated),"6.51 µM [falling, single point]",
CCOC(=O)Nc1ccc2nc(N3CCCCCC3)sc2c1,"7.08 µM [rising, full curve, poor fit]","11.2 µM [falling, partial curve]"
CCc1nc(SCC(=O)Nc2ccc(C(=O)O)cc2)n[nH]1,"29.1 µM [falling, single point]",
COc1ccc(-c2nc3ccccc3o2)cc1NC(=O)c1ccc(Br)o1,"1 µM [rising, full curve, poor fit]",
Cc1cc(C(=O)NCCC(c2ccccc2)c2ccccc2)c(C)o1,"29.1 µM [falling, single point]",
CO/N=C/C(c1ccc(Cl)nc1)S(=O)(=O)c1ccccc1 (configuration not stated),"5.62 µM [rising, single point]",
Cc1csc(NC(=O)CSc2[nH]c(=O)ncc2C)n1,"0.058 µM [falling, partial curve, poor fit]","0.731 µM [rising, partial curve, poor fit]"
COc1ccc(/C=C/C(=O)Nc2ccc(C)c(S(=O)(=O)N3CCOCC3)c2)cc1,"3.26 µM [falling, partial curve, poor fit]",
Cc1ccc(/C=N/n2c(-c3ccco3)n[nH]c2=S)s1,"1.64 µM [falling, partial curve]",
COc1ccc(NC(=O)Nc2cccc([N+](=O)[O-])c2)cc1Cl,"29.1 µM [falling, single point]",
CCC(=O)NC(c1cccs1)c1cc(Br)c2cccnc2c1O (configuration not stated),"4.61 µM [falling, partial curve]",
CC(=O)N1CCC(=NNC(=O)c2cccs2)CC1,"8.2 µM [falling, single point]",
COc1cccc(CN(C(=O)Cc2c[nH]c3ccccc23)C(C(=O)NC2CCCCC2)c2cccs2)c1 (configuration not stated),"32.6 µM [falling, single point]","32.6 µM [rising, partial curve, poor fit]"
O=C1CN(C(=O)COC(=O)/C=C/c2ccc(F)cc2)c2ccccc2N1,"2.91 µM [rising, full curve]",
CCOc1ccccc1Nc1nc(-c2sc(NC(=O)c3cccc(Cl)c3)nc2C)cs1,"6.31 µM [falling, partial curve, poor fit]",
COC(=O)[C@H](CCSC)NC(=O)c1cc2c(cn1)[nH]c1ccccc12,"0.501 µM [falling, full curve, poor fit]",
O=C(CCS(=O)(=O)c1cccc2nonc12)NCCc1ccccc1Cl,"3.66 µM [rising, single point]",
CN1CCCN(C(=O)c2cc(=O)[nH]c3ccccc23)c2nc3ccccc3nc21,"2.59 µM [rising, full curve, poor fit]",
Cn1c(SCC(=O)N2CCCc3ccccc32)ncc(C(=O)Nc2ccccc2)c1=O,"0.447 µM [falling, full curve]",

Compound,AC50 [1],AC50 [2]
COc1ccccc1C(=O)NNC(=O)C(=O)Nc1cccc(Cl)c1C,"12.6 µM [falling, single point]",
C=CCC1(CC=C)CCCN1C(=O)Cn1nnnc1CN(C)C(C)C,"0.112 µM [falling, full curve, poor fit]",
Cc1ccccc1OCCSc1nnc(C)n1-c1ccccc1,"13 µM [rising, single point]",
COC(=O)c1cccc(C23CC4(C2)[C@H](CN(C)[C@@H]4c2ccccc2)C3c2ccccc2)c1 (some centres not stated),"4.47 µM [falling, full curve, poor fit]",
Cc1ccc(Cl)cc1N1CCN(C(=O)c2noc(C)c2[N+](=O)[O-])CC1,"35.5 µM [falling, single point]",
CCN(CC)c1c([N+](=O)[O-])c(=O)sc2ccccc12,"29.1 µM [falling, single point]",
O=C(Nc1nc(-c2ccccc2)ns1)c1cccs1,"1.84 µM [falling, full curve, poor fit]",
Cc1n[nH]c(=O)c2c(NC(=O)CSc3c(Cl)cccc3Cl)oc(C)c12,"29.1 µM [rising, single point]",
COC(=O)c1ccccc1-c1ccc(/C=N/Nc2nc(N3CCCC3)nc(N3CCCC3)n2)o1,"35.5 µM [falling, single point]","11.2 µM [rising, partial curve, poor fit]"
O=C(NNC(=O)c1ccco1)c1csc(N2CCOCC2)n1,"23.1 µM [falling, single point]","20.6 µM [rising, partial curve, poor fit]"
CCCc1nnc(NC(=O)c2ccncc2)s1,"25.1 µM [falling, single point]",
CCN(CC)c1ccc(C(=O)OCC(=O)Nc2sccc2C#N)cc1,"2.59 µM [rising, full curve]",
Cc1cc(/C([O-])=C(/C(=S)Nc2ccc(F)cc2)[n+]2ccccc2)c(C)n1-c1ccc(F)cc1,"3.55 µM [falling, full curve, poor fit]",
COc1ccc(-n2cc(-c3ccccc3)c3c(NC4CCCC4)ncnc32)cc1,"2.51 µM [rising, full curve]",
CC(=O)Nc1ccc(S(=O)(=O)NCCC(=O)Nc2ccc(C)c(Cl)c2)cc1,,"23.1 µM [falling, partial curve, poor fit]"
O=C(O)c1cccc2c1C(=O)c1ccccc1-2,"15.8 µM [rising, single point]","17.8 µM [rising, partial curve, poor fit]"
CC[C@]1(O)C[C@@H]2CN(CCc3c([nH]c4ccccc34)[C@@](C(=O)OC)(c3cc4c(cc3OC)N(C)[C@H]3[C@@](O)(C(=O)OC)[C@H](OC(C)=O)[C@]5(CC)C=CCN6CC[C@]43[C@@H]65)C2)C1,"2.24 µM [rising, full curve]","2.24 µM [falling, full curve]"
Cc1ccc(-c2nnc(NCc3nc4ccccc4[nH]3)c3ccccc23)cc1S(=O)(=O)N1CCCCC1,"29.1 µM [falling, single point]",
CC(C)CN(CC(C)C)C(=O)CN1C(=O)NC2(CCc3ccccc3C2)C1=O (configuration not stated),"6.31 µM [rising, single point]",
Cc1cc(C)cc(NC(=O)CSc2nc(=O)n(Cc3ccccn3)c3c2CCC3)c1,"0.794 µM [falling, full curve, poor fit]",

# Part of the list above in a different format.
Compound | AC50 [1] | AC50 [2]
Cc1ccccc1OCCSc1nnc(C)n1-c1ccccc1 | 13 µM [rising, single point] | 
COC(=O)c1cccc(C23CC4(C2)[C@H](CN(C)[C@@H]4c2ccccc2)C3c2ccccc2)c1 (some centres not stated) | 4.47 µM [falling, full curve, poor fit] | 
Cc1ccc(Cl)cc1N1CCN(C(=O)c2noc(C)c2[N+](=O)[O-])CC1 | 35.5 µM [falling, single point] | 
CCN(CC)c1c([N+](=O)[O-])c(=O)sc2ccccc12 | 29.1 µM [falling, single point] | 
O=C(Nc1nc(-c2ccccc2)ns1)c1cccs1 | 1.84 µM [falling, full curve, poor fit] | 
Cc1n[nH]c(=O)c2c(NC(=O)CSc3c(Cl)cccc3Cl)oc(C)c12 | 29.1 µM [rising, single point] | 
COC(=O)c1ccccc1-c1ccc(/C=N/Nc2nc(N3CCCC3)nc(N3CCCC3)n2)o1 | 35.5 µM [falling, single point] | 11.2 µM [rising, partial curve, poor fit]
O=C(NNC(=O)c1ccco1)c1csc(N2CCOCC2)n1 | 23.1 µM [falling, single point] | 20.6 µM [rising, partial curve, poor fit]
CCCc1nnc(NC(=O)c2ccncc2)s1 | 25.1 µM [falling, single point] | 
CCN(CC)c1ccc(C(=O)OCC(=O)Nc2sccc2C#N)cc1 | 2.59 µM [rising, full curve] | 
Cc1cc(/C([O-])=C(/C(=S)Nc2ccc(F)cc2)[n+]2ccccc2)c(C)n1-c1ccc(F)cc1 | 3.55 µM [falling, full curve, poor fit] | 
COc1ccc(-n2cc(-c3ccccc3)c3c(NC4CCCC4)ncnc32)cc1 | 2.51 µM [rising, full curve] | 
CC(=O)Nc1ccc(S(=O)(=O)NCCC(=O)Nc2ccc(C)c(Cl)c2)cc1 |  | 23.1 µM [falling, partial curve, poor fit]

# (listing goes on)

Compound,AC50 [1],AC50 [2]
C/C=C(\C)C(=O)N1CC2(CC(c3cccc(NC(=O)COc4ccc(Cl)cc4)c3)=NO2)C[C@@H]1C(N)=O (some centres not stated),"7.08 µM [falling, full curve, poor fit]",
COc1ccc(Cc2nc3ccc(C(=O)NCCn4cccn4)cc3o2)cc1,"2.51 µM [rising, full curve, poor fit]",
Cc1ccc(N(CC(O)CN2CCCCC2)S(=O)(=O)c2ccccc2)cc1 (configuration not stated),"35.5 µM [falling, single point]",
COc1ccccc1NC(=O)CON=C(N)CC(=O)NC1CCCCC1,"8.2 µM [falling, partial curve]",
Cc1ccc(Cl)cc1NC(=S)N/N=C/c1cccc2ccccc12,"11.2 µM [rising, single point]","10 µM [falling, partial curve]"
CCOC(=O)CNC(=O)c1ccc(Br)s1,"0.562 µM [rising, full curve, poor fit]",
COC(=O)c1c(NC(=O)COC(=O)CCNS(=O)(=O)c2ccc(NC(C)=O)cc2)sc(C)c1C,"23.1 µM [rising, single point]",
COc1cccc(/C=N/NC(=O)c2cc3cc([N+](=O)[O-])ccc3s2)c1O,,"0.651 µM [falling, full curve, poor fit]"
O=C1C(=C(O)c2ccccc2)C(=O)c2ccccc21,"35.5 µM [falling, single point]",
NCC(c1ccc(Cl)cc1Cl)c1c[nH]c2ccccc12 (configuration not stated),"10 µM [falling, partial curve, poor fit]",
O=C1C2=C(Nc3ccccc3SC2c2ccco2)c2ccccc21 (configuration not stated),"29.1 µM [falling, single point]",
O=C(N/N=C/C(Cl)=C\c1ccccc1)c1cnccn1,"32.6 µM [falling, single point]",
c1ccc(CCN2CCN=C2Nc2ccccc2)cc1,"6.31 µM [falling, single point]",
COC(=O)c1ccc(C23CC4(C2)[C@H](CN(Cc2cccnc2)[C@@H]4c2ccccc2)C3c2ccc(Cl)nc2)cc1 (some centres not stated),"15.8 µM [falling, single point]",
CCc1ccc(N(CC(=O)NC)S(C)(=O)=O)cc1,"0.092 µM [falling, full curve, poor fit]",
COc1ccccc1CNc1nccn(-c2ccccc2)c1=O,"8.91 µM [falling, partial curve]",
CCC(Oc1ccc(Br)cc1Cl)C(=O)Nc1nnc(C2CC2)s1 (configuration not stated),"20 µM [falling, single point]",
Cc1ccc2[nH]cc(CCNC(=O)c3ccc4c(c3)OCO4)c2c1,"8.91 µM [falling, partial curve, poor fit]",
Cc1ccc2c(c1)c(-c1csc(N)n1)c(C)n2C,"8.91 µM [falling, partial curve, poor fit]",
